For part of these data: Weaker means in comparison with the reference protein, sequence or condition of that experiment. Where a protein sequence is shown, tags need not be part of it. For part of these data: For at least one entry, the source does not settle the construct or the ends of the probe. For part of these data: At least one verdict was read from the data and is not stated in words by the source.
How the values were obtained:
RBM5 RRM1 (human) = target: T1, RBM5 RRM1 (human) (UniProt P52756); test: NMR; conditions: protein:RNA 1:1; NMR: 20 mM MES pH 6.5, 100 mM (single RRMs) or 400 mM (multidomain) NaCl, 1 mM DTT, 298 K; recombinant protein; residues 94-184; protein details: His-Trx tag, TEV site (cleaved)
T1 sequence (looked up): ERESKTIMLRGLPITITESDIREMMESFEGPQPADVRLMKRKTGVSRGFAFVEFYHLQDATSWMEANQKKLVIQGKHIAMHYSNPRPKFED

[1] = target: T2, RBM5 RRM1-ZnF1S I107T,C191G (Homo sapiens) (UniProt P52756); test: structure; conditions: Zn; purified recombinant protein; residues 94-210; variant of GGCU_12
T2 sequence (looked up): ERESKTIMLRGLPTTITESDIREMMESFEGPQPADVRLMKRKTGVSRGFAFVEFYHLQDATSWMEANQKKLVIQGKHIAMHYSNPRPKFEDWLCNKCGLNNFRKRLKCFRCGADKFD

[2] = target: T3, RBM5 L1-RRM2 (Homo sapiens) (UniProt P52756); test: NMR; conditions: 20 mM MES pH 6.5, 100 mM NaCl, 1 mM DTT, 25 C; protein 0.1-0.2 mM; purified recombinant protein
T3 sequence (looked up, limits assumed): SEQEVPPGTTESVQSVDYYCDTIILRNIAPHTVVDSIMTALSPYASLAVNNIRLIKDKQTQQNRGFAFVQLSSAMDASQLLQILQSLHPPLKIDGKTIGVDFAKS

Q: Does UCUCUUCUC [CU_9] bind (RBM5 RRM1 (human))?
A: Result: binds

Q: Does UGGCUCUUCU [GGCU_10] bind [1]?
A: Result: binds

Q: Does UGGCUCUUCUCU [GGCU_12] bind [2]?
A: Result: binds more weakly
